Reference: patent US20190315775A1, “MODIFIED […] AND PHARMACEUTICAL COMPOSITION HAVING SAME AS ACTIVE INGREDIENT” (KEIO UNIVERSITY, priority 2016, published 2019)
At least one read-out could not be matched to a standard name with certainty.

Experiment: Water solubility of drugs (saturation concentration by HPLC)
Assay type: physicochemical
Details: relative to TC11, text on Table 1

Structure (SMILES)	Solubility improved relative to TC11
COCCOCCOCCOCCOCCOCCOCCOCCOCCOCCOCCOCCOc1cc2c(cc1N)C(=O)N(c1c(C(C)C)cccc1C(C)C)C2=O [PEG11(O)-TC11]	735 times
CC(C)c1cccc(C(C)C)c1N1C(=O)c2cc(N)c(OCCO)cc2C1=O [HOEtO-TC11, hydroxyethoxy-TC11]	13.5 times
COCCOCCOCCOCCOCCOCCOCCOCCOCCOCCOCCOCCC(=O)OCCOc1cc2c(cc1N)C(=O)N(c1c(C(C)C)cccc1C(C)C)C2=O [PEG11(E)-TC11]	4,447 times
CC(C)c1cccc(C(C)C)c1N1C(=O)c2cc(N)c(OCCO[C@@H]3OC(CO)[C@@H](O)[C@H](O)C3O)cc2C1=O (stereo partly shown) [Glu-TC11]	41 times
